From article doi:10.1101/2020.05.20.107664
Changes are numbered by the printed parent chain. These are yes or no findings as the source states them, for the method shown. Binding seen in cells or lysates may run through a third protein. Binding calls can cover weak binding; strength is not graded here. Sequences can lack the tags named with a protein.

Columns and labels:
[1] = molecular target: T1, α-COP variant K230N (α-COP-FLAG), stably expressed in MEFs (mouse) (UniProt Q8CIE6); experiment: co-IP
T1 sequence: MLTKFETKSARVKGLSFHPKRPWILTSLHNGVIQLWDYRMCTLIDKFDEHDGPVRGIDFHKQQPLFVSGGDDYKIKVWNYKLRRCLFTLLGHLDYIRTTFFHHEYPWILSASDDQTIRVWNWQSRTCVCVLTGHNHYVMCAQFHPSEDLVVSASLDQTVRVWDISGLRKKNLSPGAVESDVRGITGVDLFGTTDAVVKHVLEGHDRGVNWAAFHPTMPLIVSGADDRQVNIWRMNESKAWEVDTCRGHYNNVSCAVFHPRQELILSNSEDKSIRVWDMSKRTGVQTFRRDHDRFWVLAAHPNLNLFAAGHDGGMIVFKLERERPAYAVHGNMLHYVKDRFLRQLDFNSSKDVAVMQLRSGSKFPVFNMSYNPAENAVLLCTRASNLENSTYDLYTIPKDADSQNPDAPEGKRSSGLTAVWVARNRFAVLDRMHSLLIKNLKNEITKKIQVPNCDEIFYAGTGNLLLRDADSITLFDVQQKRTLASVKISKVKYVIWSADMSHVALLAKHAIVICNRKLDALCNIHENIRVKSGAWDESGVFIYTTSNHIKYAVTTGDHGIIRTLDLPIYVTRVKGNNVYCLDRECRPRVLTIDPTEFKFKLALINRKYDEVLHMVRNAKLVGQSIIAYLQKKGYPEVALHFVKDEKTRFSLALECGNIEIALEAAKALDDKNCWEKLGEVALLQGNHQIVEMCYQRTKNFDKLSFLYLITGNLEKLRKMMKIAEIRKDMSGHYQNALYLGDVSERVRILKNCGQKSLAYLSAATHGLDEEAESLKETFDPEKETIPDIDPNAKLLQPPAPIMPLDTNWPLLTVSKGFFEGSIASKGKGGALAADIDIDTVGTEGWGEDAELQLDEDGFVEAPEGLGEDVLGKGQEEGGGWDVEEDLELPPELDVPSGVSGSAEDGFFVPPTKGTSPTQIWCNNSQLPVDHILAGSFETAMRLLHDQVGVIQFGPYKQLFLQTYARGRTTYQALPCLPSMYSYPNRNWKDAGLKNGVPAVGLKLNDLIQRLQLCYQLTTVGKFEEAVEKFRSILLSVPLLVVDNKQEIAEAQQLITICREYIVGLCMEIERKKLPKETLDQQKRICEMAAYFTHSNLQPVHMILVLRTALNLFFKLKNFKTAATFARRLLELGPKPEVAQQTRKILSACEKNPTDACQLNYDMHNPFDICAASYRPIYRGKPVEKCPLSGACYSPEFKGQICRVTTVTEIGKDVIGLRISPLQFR

[2] = molecular target: T2, α-COP variant D243G (α-COP-FLAG), stably expressed in MEFs (mouse) (UniProt Q8CIE6); experiment: co-IP
T2 sequence: T1 sequence with N230K, D243G

EGFP-mouse STING, stably expressed in MEFs
binding [1]: binds | binding [2]: binds
